{
  "source": "patent US20210277399A1",
  "about": "“Methods of Imaging and Tracking Nucleic Acids in Cells” (Emory University, priority 2020, published 2021)",
  "key": {"[1]": {"test_system": "Neuro-2a cells", "experiment": "Live cell imaging of mRNA in stress granules", "type": "cell-based, Mouse", "settings": "after arsenite exposure", "description": "Experiments were performed to determine whether the MGD2/MGA system would be suitable for live cell imaging of endogenous mRNA localization and dynamics. Moreover, experiments were performed to determine whether one could simultaneously track the real-time localization properties of both RNA and proteins within a living cell. For this assay, Neuro-2a cells were co-transfected with expression plasmids for 1×MGA-mCDK6 and dual GFP-tagged G3BP1 protein. The expressed mRNA was labeled with MGD2 and photo crosslinked. The cells were then imaged to record the spatiotemporal features of both mRNA and protein in stress granules. […] Monitoring the signal intensity, the fluorescent signal generated from the MGD2 labeled granules was observed and remained consistent over >25 min of imaging.\nAfter observing the motility and maturation of the granules, experiments were performed to determine whether one could also observe their dissolution. In mammalian cells, stress granules disassemble in the presence of small aliphatic molecules that disrupt weak hydrophobic interactions. Therefore, 1,6-hexanediol, an aliphatic alcohol commonly used for disassembly of stress granules was added. After arsenite-induced stress granule formation, the cells were incubated in 5% 1,6-hexanediol solution. The fluorescence signal of the labeled 1×MGA-mCDK6 was observed. […]"}, "[2]": {"test_system": "control GFP mRNA lacking MGA", "experiment": "Labeling specificity by denaturing PAGE analysis", "type": "biochemical"}},
  "data": [
    {"compound": "CN(C)c1ccc(C(=C2C=CC(=[N+](C)C)C=C2)c2ccc(NC(=O)CCC3(C)N=N3)cc2)cc1", "note": "[MGD2, N-(4-((4-(dimethylamino)phenyl)(4-(3-(3-methyl-3H-diazirin-3-yl) Propan amido)phenyl)methylene)cyclohexa-2,5-dien-1-ylidene)-N-methylmethanaminium Chloride]", "values": [
      {"measurement": "imaging time over which fluorescent signal remained consistent", "setting": "[1]; MGD2 labeled 1×MGA-mCDK6 granules", "result": "> 25", "unit": "min"},
      {"measurement": "irradiation time after which non-specific labeling of the control mRNA was observed", "setting": "[2]; 30 μM MGD2, 4 μM control mRNA", "result": 15, "unit": "min"},
      {"measurement": "irradiation time after which non-specific labeling of the control mRNA was observed", "setting": "[2]; 100 μM MGD2, 4 μM control mRNA", "result": 10, "unit": "min"}
    ]},
    {"compound": "GFP-tagged G3BP1: dual GFP-tagged G3BP1 protein, stress granule marker co-expressed for comparison", "values": [
      {"measurement": "imaging time after which signal showed a sharp decrease", "setting": "[1]; GFP signal", "result": 17, "unit": "min"}
    ]}
  ]
}
